Read-outs that look alike come from different tables or passages of the source. Results are given in words; binding and its absence hold for the method and conditions named. In cells and extracts the contact can be indirect. Here binding means that the protein was enriched with, or labelled near, the bait; the list need not be complete. Where a sequence is shown, tags or fusion partners need not be part of it. Each block holds one molecule with its values, some of them ahead of it.
What was measured:
Test in all cases: affinity purification with mass spectrometry; SILAC; extracts of HeLa cells stably expressing the 3xFLAG-GFP fusion, GFP-Trap beads, 75 min at 4 °C, lysis buffer 0.5% triton X-100, 20 mM HEPES pH 7.4, 150 mM NaCl; control: HeLa H9 without the fusion
GFP-PIH1D2 (human) [1] = molecular target: T1, GFP-PIH1D2 (human) (UniProt Q8WWB5)
T1 sequence: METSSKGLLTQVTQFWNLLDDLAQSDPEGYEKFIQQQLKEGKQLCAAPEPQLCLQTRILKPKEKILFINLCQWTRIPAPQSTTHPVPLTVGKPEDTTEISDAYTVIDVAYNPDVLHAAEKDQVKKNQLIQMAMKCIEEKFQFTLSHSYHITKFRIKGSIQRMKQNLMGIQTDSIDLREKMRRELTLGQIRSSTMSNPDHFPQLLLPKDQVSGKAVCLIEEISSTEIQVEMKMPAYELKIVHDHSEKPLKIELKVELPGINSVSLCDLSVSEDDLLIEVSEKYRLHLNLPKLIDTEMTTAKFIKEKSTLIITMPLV

The chains behind the UniProt entries cited, without tags or fusion partners.
UniProt O95816: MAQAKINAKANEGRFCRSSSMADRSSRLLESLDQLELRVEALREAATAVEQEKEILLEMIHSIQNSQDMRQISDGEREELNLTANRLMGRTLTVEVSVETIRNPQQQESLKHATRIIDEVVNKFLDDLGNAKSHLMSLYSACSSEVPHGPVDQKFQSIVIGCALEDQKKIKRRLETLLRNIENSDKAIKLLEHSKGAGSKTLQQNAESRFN
UniProt Q9Y265: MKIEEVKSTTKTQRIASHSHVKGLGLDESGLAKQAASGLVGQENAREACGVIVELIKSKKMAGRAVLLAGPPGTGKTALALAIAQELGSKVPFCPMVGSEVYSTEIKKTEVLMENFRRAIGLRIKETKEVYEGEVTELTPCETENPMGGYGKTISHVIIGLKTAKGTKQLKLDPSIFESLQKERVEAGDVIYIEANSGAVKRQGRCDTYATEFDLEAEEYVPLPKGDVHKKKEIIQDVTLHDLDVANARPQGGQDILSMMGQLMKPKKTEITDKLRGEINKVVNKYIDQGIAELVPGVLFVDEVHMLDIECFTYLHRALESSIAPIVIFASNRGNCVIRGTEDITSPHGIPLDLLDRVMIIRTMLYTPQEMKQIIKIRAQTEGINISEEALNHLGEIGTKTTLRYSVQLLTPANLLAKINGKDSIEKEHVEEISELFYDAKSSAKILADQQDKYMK

GFP-DNAAF2 (human) [2] = molecular target: T2, GFP-DNAAF2 (human) (UniProt Q9NVR5)
T2 sequence: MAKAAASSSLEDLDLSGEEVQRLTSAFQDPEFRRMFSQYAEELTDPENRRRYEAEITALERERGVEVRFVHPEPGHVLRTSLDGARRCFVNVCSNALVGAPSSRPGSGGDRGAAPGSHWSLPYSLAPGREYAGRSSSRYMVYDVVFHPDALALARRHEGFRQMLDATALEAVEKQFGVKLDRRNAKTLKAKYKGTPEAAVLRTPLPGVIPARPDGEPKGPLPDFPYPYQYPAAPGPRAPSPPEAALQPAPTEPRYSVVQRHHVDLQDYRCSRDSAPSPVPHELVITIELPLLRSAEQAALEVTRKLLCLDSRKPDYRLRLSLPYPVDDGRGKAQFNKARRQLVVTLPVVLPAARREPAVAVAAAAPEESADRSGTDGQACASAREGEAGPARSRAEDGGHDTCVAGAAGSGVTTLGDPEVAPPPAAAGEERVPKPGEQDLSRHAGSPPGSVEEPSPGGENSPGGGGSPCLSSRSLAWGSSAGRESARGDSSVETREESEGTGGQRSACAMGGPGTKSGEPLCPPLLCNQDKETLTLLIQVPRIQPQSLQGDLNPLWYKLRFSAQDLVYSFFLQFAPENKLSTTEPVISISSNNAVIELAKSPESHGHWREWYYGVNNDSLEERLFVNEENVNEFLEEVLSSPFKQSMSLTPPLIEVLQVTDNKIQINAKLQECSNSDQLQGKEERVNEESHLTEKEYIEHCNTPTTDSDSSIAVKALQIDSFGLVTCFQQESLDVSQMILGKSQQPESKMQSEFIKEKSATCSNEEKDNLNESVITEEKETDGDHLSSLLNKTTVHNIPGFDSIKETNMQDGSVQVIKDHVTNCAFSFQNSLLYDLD

GFP-PIH1D3 (human) [3] = molecular target: T3, GFP-PIH1D3 (human) (UniProt Q9NQM4)
T3 sequence: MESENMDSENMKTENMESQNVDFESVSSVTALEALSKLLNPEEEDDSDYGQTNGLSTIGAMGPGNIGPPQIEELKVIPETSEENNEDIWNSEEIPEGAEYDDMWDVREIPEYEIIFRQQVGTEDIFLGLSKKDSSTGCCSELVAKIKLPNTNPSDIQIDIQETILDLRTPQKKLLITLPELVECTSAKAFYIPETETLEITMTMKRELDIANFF

GFP-PIH1D3 (human) [4] = molecular target: T3, GFP-PIH1D3 (human); remark: listed apart in the source
GFP-DNAAF2 (human) [5] = molecular target: T2, GFP-DNAAF2 (human); remark: listed apart in the source
GFP-PIH1D2 (human) [6] = molecular target: T1, GFP-PIH1D2 (human); remark: listed apart in the source

- binding (GFP-PIH1D2 (human) [1]): binds
Molecule: BAG2 (from UniProt O95816 1-211)

- binding (GFP-PIH1D2 (human) [1]): binds
Molecule: HSP70 (endogenous) (human (endogenous in HeLa))

- binding (GFP-DNAAF2 (human) [5]): binds
B2: DYX1C1-iso-a (endogenous) (protein, UniProt Q8WXU2 1-420)
chain: MPLQVSDYSWQQTKTAVFLSLPLKGVCVRDTDVFCTENYLKVNFPPFLFEAFLYAPIDDESSKAKIGNDTIVFTLYKKEAAMWETLSVTGVDKEMMQRIREKSILQAQERAKEATEAKAAAKREDQKYALSVMMKIEEEERKKIEDMKENERIKATKALEAWKEYQRKAEEQKKIQREEKLCQKEKQIKEERKKIKYKSLTRNLASRNLAPKGRNSENIFTEKLKEDSIPAPRSVGSIKINFTPRVFPTALRESQVAEEEEWLHKQAEARRAMNTDIAELCDLKEEEKNPEWLKDKGNKLFATENYLAAINAYNLAIRLNNKMPLLYLNRAACHLKLKNLHKAIEDSSKALELLMPPVTDNANARMKAHVRRGTAFCQLELYVEGLQDYEAALKIDPSNKIVQIDAEKIRNVIQGTELKS

Continued, molecule first:

Molecule: RUVBL1 (endogenous) (from UniProt Q9Y265 1-456)
- binding (GFP-DNAAF2 (human) [2]): binds weakly
- binding (GFP-PIH1D2 (human) [1]): binds
- binding (GFP-PIH1D3 (human) [3]): binds weakly

B1: LRIF1 (protein, UniProt Q5T3J3 1-769)
chain: MSNNLRRVFLKPAEENSGNASRCVSGCMYQVVQTIGSDGKNLLQLLPIPKSSGNLIPLVQSSVMSDALKGNTGKPVQVTFQTQISSSSTSASVQLPIFQPASSSNYFLTRTVDTSEKGRVTSVGTGNFSSSVSKVQSHGVKIDGLTMQTFAVPPSTQKDSSFIVVNTQSLPVTVKSPVLPSGHHLQIPAHAEVKSVPASSLPPSVQQKILATATTSTSGMVEASQMPTVIYVSPVNTVKNVVTKNFQNIYPKPVTEIAKPVILNTTQIPKNVATETQLKGGQHSQAAPVKWIFQDNLQPFTPSLVPVKSSNNVASKILKTFVDRKNLGDNTINMPPLSTIDPSGTRSKNMPIKDNALVMFNGKVYLLAKKGTDVLPSQIDQQNSVSPDTPVRKDTLQTVSSSPVTEISREVVNIVLAKSKSSQMETKSLSNTQLASMANLRAEKNKVEKPSPSTTNPHMNQSSNYLKQSKTLFTNPIFPVGFSTGHNAPRKVTAVIYARKGSVLQSIEKISSSVDATTVTSQQCVFRDQEPKIHNEMASTSDKGAQGRNDKKDSQGRSNKALHLKSDAEFKKIFGLTKDLRVCLTRIPDHLTSGEGFDSFSSLVKSGTYKETEFMVKEGERKQQNFDKKRKAKTNKKMDHIKKRKTENAYNAIINGEANVTGSQLLSSILPTSDVSQHNILTSHSKTRQEKRTEMEYYTHEKQEKGTLNSNAAYEQSHFFNKNYTEDIFPVTPPELEETIRDEKIRRLKQVLREKEAALEEMRKKMHQK
- binding (GFP-PIH1D3 (human) [4]): binds

B3: SPAG1 (endogenous) (protein, UniProt Q07617 1-926)
chain: MTTKDYPSLWGFGTTKTFKIPIEHLDFKYIEKCSDVKHLEKILCVLRSGEEGYYPELTEFCEKHLQALAPESRALRKDKPAATAASFTAEEWEKIDGDIKSWVSEIKKEEDKMHFHETETFPAMKDNLPPVRGSNSCLHVGKEKYSKRPTKKKTPRDYAEWDKFDVEKECLKIDEDYKEKTVIDKSHLSKIETRIDTAGLTEKEKDFLATREKEKGNEAFNSGDYEEAVMYYTRSISALPTVVAYNNRAQAEIKLQNWNSAFQDCEKVLELEPGNVKALLRRATTYKHQNKLREATEDLSKVLDVEPDNDLAKKTLSEVERDLKNSEAASETQTKGKRMVIQEIENSEDEEGKSGRKHEDGGGDKKPAEPAGAARAAQPCVMGNIQKKLTGKAEGGKRPARGAPQRGQTPEAGADKRSPRRASAAAAAGGGATGHPGGGQGAENPAGLKSQGNELFRSGQFAEAAGKYSAAIALLEPAGSEIADDLSILYSNRAACYLKEGNCSGCIQDCNRALELHPFSMKPLLRRAMAYETLEQYGKAYVDYKTVLQIDCGLQLANDSVNRLSRILMELDGPNWREKLSPIPAVPASVPLQAWHPAKEMISKQAGDSSSHRQQGITDEKTFKALKEEGNQCVNDKNYKDALSKYSECLKINNKECAIYTNRALCYLKLCQFEEAKQDCDQALQLADGNVKAFYRRALAHKGLKNYQKSLIDLNKVILLDPSIIEAKMELEEVTRLLNLKDKTAPFNKEKERRKIEIQEVNEGKEEPGRPAGEVSMGCLASEKGGKSSRSPEDPEKLPIAKPNNAYEFGQIINALSTRKDKEACAHLLAITAPKDLPMFLSNKLEGDTFLLLIQSLKNNLIEKDPSLVYQHLLYLSKAERFKMMLTLISKGQKELIEQLFEDLSDTPNNHFTLEDIQALKRQYEL
- binding (GFP-PIH1D2 (human) [6]): binds

— publication PMC5974087, “The RPAP3-Cterminal domain identifies R2TP-like quaternary chaperones” (Nature Communications, 2018)
